# The supplement of paper PMC4604168 (melanoma cell lines)
# The list shows a part of the results. Many values rest on one well or one pass, so single values are uncertain.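 The apoptosis fraction was the count of cleaved-PARP antibody-stained nuclei relative to all DNA-stained nuclei, imaged in 1,536-well plates. Screening doses were set so most cells survived, and baseline and induced cleaved-PARP levels vary greatly across cell lines.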
# Legend:
# Test in all cases: cleaved PARP positive nuclei fraction relative to DMSO control; melanoma cells; higher = more apoptosis
# Settings in all cases: library dose: low library concentration; 72 h
# 501Mel = test system: 501Mel
# A101D = test system: A101D
# A2058 = test system: A2058
# C32 = test system: C32
# CBRC008 = test system: CBRC008 (line from a melanoma biopsy)
# CBRC014 = test system: CBRC014 (line from a melanoma biopsy)
# CBRC016 = test system: CBRC016 (line from a melanoma biopsy)
# CBRC017 = test system: CBRC017 (line from a melanoma biopsy)
# COLO792 = test system: COLO792
# COLO800 = test system: COLO800
# COLO829 = test system: COLO829
# G361 = test system: G361
# IPC-298 = test system: IPC-298
# IST-MEL1 = test system: IST-MEL1
# LB2518-MEL = test system: LB2518-MEL
# LOXIMVI = test system: LOXIMVI
SMILES,cleaved PARP positive nuclei fraction (501Mel) [%],cleaved PARP positive nuclei fraction (A101D) [%],cleaved PARP positive nuclei fraction (A2058) [%],cleaved PARP positive nuclei fraction (C32) [%],cleaved PARP positive nuclei fraction (CBRC008) [%],cleaved PARP positive nuclei fraction (CBRC014) [%],cleaved PARP positive nuclei fraction (CBRC016) [%],cleaved PARP positive nuclei fraction (CBRC017) [%],cleaved PARP positive nuclei fraction (COLO792) [%],cleaved PARP positive nuclei fraction (COLO800) [%],cleaved PARP positive nuclei fraction (COLO829) [%],cleaved PARP positive nuclei fraction (G361) [%],cleaved PARP positive nuclei fraction (IPC-298) [%],cleaved PARP positive nuclei fraction (IST-MEL1) [%],cleaved PARP positive nuclei fraction (LB2518-MEL) [%],cleaved PARP positive nuclei fraction (LOXIMVI) [%]
"C=C(c1ccc(C(=O)O)cc1)c1cc2c(cc1C)C(C)(C)CCC2(C)C [Bexarotene] + Oc1nc(-c2ccc(C(F)(F)F)cc2)nc2c1CSCC2 [XAV939] (first compound 2 µM, partner dose 2 µM)",66.3,1190,89.2,137,52.6,93.4,67.3,120,93.2,122,117,51.2,49,69.7,123,50.6
"CCCS(=O)(=O)Nc1ccc(F)c(C(=O)c2c[nH]c3ncc(Cl)cc23)c1F + c1cc(-c2cnn3cc(-c4ccc(OCCN5CCCCC5)cc4)cnc23)ccn1 [Dorsomorphin] (first compound 0.08 µM, partner dose 0.4 µM)",70.6,39.3,121,41.7,45.9,109,125,118,100,149,51.7,56.5,132,93.7,67.3,177
"CS(=O)(=O)CCNCc1ccc(-c2ccc3ncnc(Nc4ccc(OCc5cccc(F)c5)c(Cl)c4)c3c2)o1 [lapatinib] + Oc1nc(-c2ccc(C(F)(F)F)cc2)nc2c1CSCC2 [XAV939] (first compound 0.8 µM, partner dose 2 µM)",54.5,27.4,151,58.3,143,95.5,81.9,88.8,125,151,42,118,48.1,85.8,60.9,70
"Nc1ccn([C@@H]2O[C@H](CO)[C@@H](O)C2(F)F)c(=O)n1 [gemcitabine] + COC(=O)c1sccc1S(=O)(=O)Nc1ccc(Nc2ccccc2)cc1OC [GSK0660] (first compound 0.0004 µM, partner dose 1 µM)",88.6,25.1,53.5,79.6,115,172,49.6,94.9,91.6,186,99.8,45.5,121,306,234,88.4
"Nc1ncn([C@H]2C[C@H](O)[C@@H](CO)O2)c(=O)n1 [decitabine] + CC(C)CCN1c2nc(Nc3cc(F)c(O)c(F)c3)ncc2N(C)C(=O)C1C [BID1870] (first compound 0.1 µM, partner dose 0.2 µM)",219,60.6,91.1,76.2,178,104,86.8,72.3,119,157,57.9,106,185,147,98,52.2
"Cn1c(=O)n(-c2ccc(C(C)(C)C#N)cc2)c2c3cc(-c4cnc5ccccc5c4)ccc3ncc21 + COc1ccc(COc2ccc(Cc3cnc(N)nc3N)cc2OC)cc1 [GW2580] (first compound 0.004 µM, partner dose 1 µM)",67.1,39.2,73,106,65.5,114,24.6,73.4,89,51.9,18.4,145,120,80.8,119,153
"C=C(c1ccc(C(=O)O)cc1)c1cc2c(cc1C)C(C)(C)CCC2(C)C [Bexarotene] + O=C1NC(=O)/C(=C/c2ccc(-c3ccc(F)cc3O)o2)S1 [AS252424] (first compound 2 µM, partner dose 1 µM)",65.4,21.3,49.8,264,274,117,151,177,129,66,151,88.1,98.5,85.1,206,67.3
"CCCS(=O)(=O)Nc1ccc(F)c(C(=O)c2c[nH]c3ncc(Cl)cc23)c1F + O=c1cc(-c2cccc3c2Sc2ccccc2S3)oc(N2CCOCC2)c1 [KU55933] (first compound 0.08 µM, partner dose 1 µM)",343,36.7,85.7,110,18.8,127,81.1,81.8,99.3,42.3,86.7,186,94.1,21.7,34.1,61.7
"C[C@@H](Oc1cc(-c2cnn(C3CCNCC3)c2)cnc1N)c1c(Cl)ccc(F)c1Cl [Crizotinib] + O=S(=O)(c1ccccc1)N(CC(F)(F)F)c1ccc(C(O)(C(F)(F)F)C(F)(F)F)cc1 [T0901317] (first compound 0.2 µM, partner dose 1.4 µM)",68,19.9,176,89.3,83,81.6,34.2,103,68,69.6,43,185,102,115,70.2,173
"Nc1ccn([C@@H]2O[C@H](CO)[C@@H](O)C2(F)F)c(=O)n1 [gemcitabine] + COc1ccc(-c2ccc3c(N4CCOCC4)nc(N4C[C@@H](C)O[C@@H](C)C4)nc3n2)cc1CO [KU0063794] (first compound 0.0004 µM, partner dose 0.02 µM)",74.7,13.4,71.6,76.4,639,241,244,121,120,137,143,265,291,99.8,152,120
"O=C(O)[C@@H]1[O][Sb](=[O])([O][Sb]2(=[O])[O][C@H]([C@H](O)CO)[C@H](O)[C@H](C(=O)O)[O]2)[O][C@H]([C@H](O)CO)[C@@H]1O (some centres undefined) [stibogluconate] + CCc1ccc(CCOc2ccc(CC3SC(=O)NC3=O)cc2)nc1 [pioglitazone] (first compound 2 µM, partner dose 2 µM)",56.4,805,244,74.5,62,78.9,86.1,479,63.6,72.9,167,160,46.2,110,134,61.3
"CCCS(=O)(=O)Nc1ccc(F)c(C(=O)c2c[nH]c3ncc(Cl)cc23)c1F + O=C(O)C(=O)Nc1sc2c(c1C(=O)O)CCNC2 [TCS401] (first compound 0.08 µM, partner dose 1.66667 µM)",59.2,70.5,87,47.7,78.4,93.3,43.8,85.1,88.6,138,148,122,132,110,65.9,186
"CN1CCN(c2ccc3nc(-c4c(N)c5c(F)cccc5[nH]c4=O)[nH]c3c2)CC1 [Dovitinib] + CCN(CC)CCCCNc1ncc2cc(-c3cc(OC)cc(OC)c3)c(NC(=O)NC(C)(C)C)nc2n1 [PD173074] (first compound 0.1 µM, partner dose 0.1 µM)",90,9.47,55.1,164,118,96.3,115,81,61.3,108,94.3,55.4,65,95.6,47.2,124
"CS(=O)(=O)CCNCc1ccc(-c2ccc3ncnc(Nc4ccc(OCc5cccc(F)c5)c(Cl)c4)c3c2)o1 [lapatinib] + N#Cc1c(O)c2c(-c3ccc(-c4ccccc4O)cc3)csc2[nH]c1=O [A769662] (first compound 0.8 µM, partner dose 2 µM)",59,49.9,120,168,139,108,34.9,75,33.8,116,74.8,69.2,48,108,71.8,164
"Nc1ncn([C@H]2C[C@H](O)[C@@H](CO)O2)c(=O)n1 [decitabine] + Cc1cc([N+](=O)[O-])ccc1NS(=O)(=O)c1cc(Cl)ccc1Cl [FH535] (first compound 0.1 µM, partner dose 1 µM)",84.5,16.5,59.2,40.4,970,216,789,923,86.4,51.1,104,180,80.7,92.4,189,159
"Nc1nc(F)nc2c1ncn2[C@@H]1O[C@H](CO)[C@@H](O)[C@@H]1O [fludarabine] + Cc1cc([N+](=O)[O-])ccc1NS(=O)(=O)c1cc(Cl)ccc1Cl [FH535] (first compound 0.2 µM, partner dose 1 µM)",1750,17.6,59.8,92.5,542,135,1170,247,39.3,135,136,132,72.2,134,89.7,97.8
"Cn1c(=O)n(-c2ccc(C(C)(C)C#N)cc2)c2c3cc(-c4cnc5ccccc5c4)ccc3ncc21 + CCCCCCCCCCCC1=C(O)C(=O)C=C(O)C1=O [Embelin] (first compound 0.004 µM, partner dose 1.2 µM)",56.3,14.1,203,189,50.6,82,61.2,83.1,132,37.5,363,142,92.7,114,67.9,53.3
"O=C(O)[C@@H]1[O][Sb](=[O])([O][Sb]2(=[O])[O][C@H]([C@H](O)CO)[C@H](O)[C@H](C(=O)O)[O]2)[O][C@H]([C@H](O)CO)[C@@H]1O (some centres undefined) [stibogluconate] + O=C1NC(=O)/C(=C/c2ccc(-c3ccc(F)cc3O)o2)S1 [AS252424] (first compound 2 µM, partner dose 1 µM)",34.9,26.6,87,86.5,178,97,33.9,107,75.8,151,174,155,192,90.8,134,107
"CS(=O)(=O)CCNCc1ccc(-c2ccc3ncnc(Nc4ccc(OCc5cccc(F)c5)c(Cl)c4)c3c2)o1 [lapatinib] + O=C1NC(=O)/C(=C/c2ccc(-c3ccc(F)cc3O)o2)S1 [AS252424] (first compound 0.8 µM, partner dose 1 µM)",66.2,27.2,72.1,81.1,385,174,77.1,109,247,42.5,52.7,185,65.9,284,31.5,263

# Part of the list above, with tabs:
SMILES	cleaved PARP positive nuclei fraction (501Mel) [%]	cleaved PARP positive nuclei fraction (A101D) [%]	cleaved PARP positive nuclei fraction (A2058) [%]	cleaved PARP positive nuclei fraction (C32) [%]	cleaved PARP positive nuclei fraction (CBRC008) [%]	cleaved PARP positive nuclei fraction (CBRC014) [%]	cleaved PARP positive nuclei fraction (CBRC016) [%]	cleaved PARP positive nuclei fraction (CBRC017) [%]	cleaved PARP positive nuclei fraction (COLO792) [%]	cleaved PARP positive nuclei fraction (COLO800) [%]	cleaved PARP positive nuclei fraction (COLO829) [%]	cleaved PARP positive nuclei fraction (G361) [%]	cleaved PARP positive nuclei fraction (IPC-298) [%]	cleaved PARP positive nuclei fraction (IST-MEL1) [%]	cleaved PARP positive nuclei fraction (LB2518-MEL) [%]	cleaved PARP positive nuclei fraction (LOXIMVI) [%]
CS(=O)(=O)CCNCc1ccc(-c2ccc3ncnc(Nc4ccc(OCc5cccc(F)c5)c(Cl)c4)c3c2)o1 [lapatinib] + N#Cc1c(O)c2c(-c3ccc(-c4ccccc4O)cc3)csc2[nH]c1=O [A769662] (first compound 0.8 µM, partner dose 2 µM)	59	49.9	120	168	139	108	34.9	75	33.8	116	74.8	69.2	48	108	71.8	164
Nc1ncn([C@H]2C[C@H](O)[C@@H](CO)O2)c(=O)n1 [decitabine] + Cc1cc([N+](=O)[O-])ccc1NS(=O)(=O)c1cc(Cl)ccc1Cl [FH535] (first compound 0.1 µM, partner dose 1 µM)	84.5	16.5	59.2	40.4	970	216	789	923	86.4	51.1	104	180	80.7	92.4	189	159
Nc1nc(F)nc2c1ncn2[C@@H]1O[C@H](CO)[C@@H](O)[C@@H]1O [fludarabine] + Cc1cc([N+](=O)[O-])ccc1NS(=O)(=O)c1cc(Cl)ccc1Cl [FH535] (first compound 0.2 µM, partner dose 1 µM)	1750	17.6	59.8	92.5	542	135	1170	247	39.3	135	136	132	72.2	134	89.7	97.8
Cn1c(=O)n(-c2ccc(C(C)(C)C#N)cc2)c2c3cc(-c4cnc5ccccc5c4)ccc3ncc21 + CCCCCCCCCCCC1=C(O)C(=O)C=C(O)C1=O [Embelin] (first compound 0.004 µM, partner dose 1.2 µM)	56.3	14.1	203	189	50.6	82	61.2	83.1	132	37.5	363	142	92.7	114	67.9	53.3
O=C(O)[C@@H]1[O][Sb](=[O])([O][Sb]2(=[O])[O][C@H]([C@H](O)CO)[C@H](O)[C@H](C(=O)O)[O]2)[O][C@H]([C@H](O)CO)[C@@H]1O (some centres undefined) [stibogluconate] + O=C1NC(=O)/C(=C/c2ccc(-c3ccc(F)cc3O)o2)S1 [AS252424] (first compound 2 µM, partner dose 1 µM)	34.9	26.6	87	86.5	178	97	33.9	107	75.8	151	174	155	192	90.8	134	107
